Measurements: publication PMC13065503

Amino acid sequences for entries named in this document (tags omitted). Residues count along the entry.
UniProt P01106, 365-454 V376C/N383C/C453A: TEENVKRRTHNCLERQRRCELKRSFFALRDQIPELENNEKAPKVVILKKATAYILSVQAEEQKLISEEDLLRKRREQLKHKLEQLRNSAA
UniProt P01106, 365-454 T365C/V369C/C453A: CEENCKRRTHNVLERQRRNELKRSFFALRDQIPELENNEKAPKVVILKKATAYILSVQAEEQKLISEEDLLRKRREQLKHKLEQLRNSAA
UniProt P01106, 365-454 V369C/T373C/C453A: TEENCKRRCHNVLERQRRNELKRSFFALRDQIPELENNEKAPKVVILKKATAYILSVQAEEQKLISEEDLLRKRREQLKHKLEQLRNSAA
UniProt P01106, 365-454 V369C/V376C/C453A: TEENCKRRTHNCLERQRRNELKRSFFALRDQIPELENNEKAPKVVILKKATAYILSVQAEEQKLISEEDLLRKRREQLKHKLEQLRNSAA

Experiments:
Assay in all cases: EMSA
Conditions in all cases: range over HeloMYC variants 8-11, individual value only in Figure 3C; EMSA: 20 mM HEPES pH 8.0, 150 mM NaCl, 5% glycerol, 1 mM EDTA, 2 mM MgCl2, 0.5 mg/mL BSA, 1 mM DTT, 0.05% NP-40; 4 nM DNA; 30 min RT then 15 min on ice; recombinant protein; protein details: His-tag, enterokinase cleavage
[1] = biological target: HeloMYC-1421 (8) V376C,N383C,C453A (UniProt P01106)
[2] = biological target: HeloMYC-37 (10) T365C,V369C,C453A (UniProt P01106)
[3] = biological target: HeloMYC-711 (11) V369C,T373C,C453A (UniProt P01106)
[4] = biological target: HeloMYC-714 (9) V369C,V376C,C453A (UniProt P01106)

Measured: binding result

ACCCCACCACGTGGTGCCT (double strand) [E-box DNA]
binds: [1] | [2] | [3] | [4]

Construct, isoform or probe ends are uncertain for at least one entry. At least one verdict was read from the data and is not stated in words by the source.
